Test results taken from PubChem BioAssay AID540276 (National Center for Advancing Translational Sciences (NCATS), 2011).
Screen size: about 300,000 compounds; about 5,400 (1.8%) were called active. The inconclusive results got no clear call from the source; some entries with a clear call stand among them for comparison. The call rests on the fitted dose curve; tested in HEK293 cells. Potencies beside an inconclusive call are fits to weak or partial responses and may not hold up.

Experiment: qHTS for inhibitors of binding or entry into cells for Marburg Virus
Settings: Marburg virus pseudotyped entry inhibition, cell reporter; activity change, negative = inhibition: at 37.8 µM (top of the series) unless noted
On the % scale 0 is the no-effect control and ±100 the full control effect; potency means the concentration at half of the fitted maximal effect.

Compound	Potency	activity change, negative = inhibition
Cc1ccsc1-c1cc(C(=O)O)c2c(ccc3ccccc32)n1	inconclusive: 5.62 µM [inhibitor, single point]	
COc1ccc2c(c1)-c1nc(NC(=O)c3cccs3)sc1CC2	inconclusive: 35.5 µM [inhibitor, single point]	
CC(C)(C)c1ccc(/C=C/C(=O)N2CCc3ccccc3C2)cc1		inactive: 4.98%
C/C(=N\NC(=O)C1CC1c1ccccc1)c1cccc([N+](=O)[O-])c1 (configuration not stated)		inactive: -2.71%
CCCNC(=O)OCc1cccnc1Sc1ccc(C)cc1	inconclusive: 31.6 µM [inhibitor, single point]	
CCc1cccc(CC)c1NC(=O)C1CN(S(=O)(=O)c2ccccc2)CCN1S(=O)(=O)c1ccccc1 (configuration not stated)	inconclusive: 35.5 µM [inhibitor, single point]	
O=C(Nc1ccccc1)Nc1nnc(CSCc2ccccc2Cl)s1		inactive: -2.09%
C=CC[C@H]1CC(C)=C[C@H](CC=C)N1		inactive: -1.26% [at 46.1 µM]
O=C(NNc1cc(N2CCOCC2)nc(N2CCOCC2)n1)c1ccc(Cl)c(Cl)c1	inconclusive: 0.316 µM [inhibitor, full curve, poor fit]	
O=C(COc1ncnc2c1cnn2-c1ccccc1)Nc1ccc(S(=O)(=O)N2CCCCC2)cc1	inconclusive: 10 µM [inhibitor, partial curve, poor fit]	
N#C/C(=C\c1ccc(F)cc1)C(=O)Nc1ccccn1		inactive: 15.1% [at 46.1 µM]
CN(C)CCCN(C(=O)c1sc2ccccc2c1Cl)c1nc2ccc(F)cc2s1	inconclusive: 35.5 µM [inhibitor, single point]	
CCN1CCN(c2oc(-c3ccccc3C)nc2S(=O)(=O)c2ccccc2)CC1	inconclusive: 25.1 µM [inhibitor, single point]	
CCN=C1SC(CC(=O)Nc2ccc(C(F)(F)F)cc2)C(=O)N1CC (configuration not stated)		inactive: -4.25%
COc1ccccc1N1CCN(C(=O)CCCCCn2c(=O)[nH]c3ccsc3c2=O)CC1	inconclusive: 12.6 µM [inhibitor, single point]	
COC(=O)c1cc(C(=O)Nc2ccc(C)cn2)cc([N+](=O)[O-])c1		inactive: 7.2%
COc1cccc(OCc2nc3ccccc3n2C)c1		inconclusive: 58.7% [activator] [at 46.1 µM]
CCOC(=O)c1[nH]c2ccccc2c1NC(=S)Nc1cccc(C)c1C		inactive: 25.2%
Cc1ccc(NC(=O)C2CCC(CNS(=O)(=O)c3cccc4nsnc34)CC2)c(C)c1 (configuration not stated)		inactive: -3.31% [at 46.1 µM]
Cc1ccccc1NS(=O)(=O)c1ccc(C(=O)N2CCN(c3ccccc3O)CC2)cc1	inconclusive: 35.5 µM [inhibitor, single point]	
Cc1ccc2nc(-c3ccccn3)cc(C(=O)Nc3ccc(S(=O)(=O)N4CCOCC4)cc3)c2c1		inactive: 4% [at 46.1 µM]
O=C(Nc1cccc(Cl)c1)Nc1nnc(CSCCOc2ccc(Cl)cc2)s1	inconclusive: 1.78 µM [inhibitor, full curve, poor fit]	
CCN1CCN(Cc2ccc(OC)c(OCc3ccccc3)c2)CC1	inconclusive: 29.1 µM [inhibitor, single point]	
COc1cc(OC)nc(S(C)(=O)=O)n1	inconclusive: 5.62 µM [inhibitor, single point]	

Four entries from above, sorted by molecular weight, low to high.
Compound	Potency	activity change, negative = inhibition
C=CC[C@H]1CC(C)=C[C@H](CC=C)N1		inactive: -1.26% [at 46.1 µM]
CC(C)(C)c1ccc(/C=C/C(=O)N2CCc3ccccc3C2)cc1		inactive: 4.98%
O=C(Nc1ccccc1)Nc1nnc(CSCc2ccccc2Cl)s1		inactive: -2.09%
Cc1ccccc1NS(=O)(=O)c1ccc(C(=O)N2CCN(c3ccccc3O)CC2)cc1	inconclusive: 35.5 µM [inhibitor, single point]	

Next part.

Compound	Potency	activity change, negative = inhibition
CCS(=O)(=O)N1CCC(NC(=O)c2ccco2)CC1	inconclusive: 5.62 µM [activator, single point]	
Cc1c(Cl)cccc1NC(=O)CS(=O)(=O)c1ccccc1	inconclusive: 35.5 µM [inhibitor, partial curve, poor fit]	
O=C(CN1C(=O)NC2(CCCCCC2)C1=O)c1cccs1		inactive: -1.04%
Cc1cc2ccccc2nc1-c1ccccc1F	inconclusive: 3.98 µM [activator, partial curve, poor fit]	
O=C(Cn1c(=O)n(Cc2ccc(F)cc2)c(=O)c2sc3ccccc3c21)NCc1ccccc1		inactive: -13.1% [at 46.1 µM]
COc1ccc(CCN(C)c2ccc(S(=O)(=O)N3CCCC3)cn2)cc1OC		inactive: 15.9% [at 46.1 µM]
COC(=O)c1ccc2c(=O)n(CCCCCC(=O)O)c(=S)[nH]c2c1		inactive: -12.5%
Cc1ccc(C)c(NC(=O)C2C3CCCC2C3c2ccccc2)c1 (configuration not stated)	inconclusive: 6.31 µM [inhibitor, single point]	
O=C(NNC1=Nc2ccccc2SC1)c1cccc([N+](=O)[O-])c1	inconclusive: 7.94 µM [inhibitor, partial curve, poor fit]	
Cc1nn(CCc2nn[nH]n2)c2nc(-c3ccc(C4CCCCC4)cc3)cc(C(F)(F)F)c12		inactive: -14.9% [at 46.1 µM]
OC(COC1CCCCC1)CN1CCN(c2ccccc2)CC1 (configuration not stated)		inactive: -3.04%
COc1cc(C)c(N(C(C)=O)c2ccccc2)c(C)c1		inactive: -12.5%
O=C(O)c1ccc(N(Cc2ccccc2)S(=O)(=O)c2ccccc2)cc1	inactive	
CC1CC(C)C(=O)C(C(CC2CC(=O)NC(=O)C2)OC(=O)CC(=O)c2ccccc2)C1 (configuration not stated)	inconclusive: 7.08 µM [inhibitor, full curve, poor fit]	
COc1ccccc1NCC(=O)N/N=C(\C)c1ccc(Br)s1	inconclusive: 25.1 µM [activator, single point]	
CCOc1cc(S(=O)(=O)NCCc2ccccc2C)c(OCC)cc1-n1cnnn1	inconclusive: 13 µM [inhibitor, partial curve, poor fit]	
c1ccc2c(N3CCCCC3)nc(N3CCOCC3)nc2c1	inconclusive: 20 µM [inhibitor, partial curve, poor fit]	
COCCCC/C(=N\OCCN)c1ccc(C(F)(F)F)cc1	active: 10 µM	
COC(=O)C[C@@H]1O[C@H]1[C@H](C)[C@@H](OC)C(C)C		inactive: -14.5% [at 14.2 µM]
CCOc1cccc(C(=O)N2CCCCC2c2cccnc2)c1 (configuration not stated)		inactive: -7.09%
CCOC(=O)c1c(-c2ccccc2)csc1NC(=O)c1cc(-c2cccc(Cl)c2)on1	inconclusive: 6.31 µM [inhibitor, single point]	
CCCCC(=O)Nc1ccc(NC(=O)CC)cc1OC	inconclusive: 14.1 µM [activator, single point]	
Cc1ccc(CSCC(=O)Nc2ccc3c(c2)OCO3)cc1	inconclusive: 1.64 µM [activator, partial curve, poor fit]	
COc1ccc(OCC(=O)Nc2ccc(N3CCOCC3)c(Cl)c2)cc1		inactive: -1.87%

Compound	Potency	activity change, negative = inhibition
CCn1cc(C(=O)NCCCOC(C)C)c(=O)c2cc(S(=O)(=O)N(C)C3CCCCC3)ccc21	inconclusive: 11.2 µM [inhibitor, partial curve]	
Cc1ccc(-c2nn(-c3ccccn3)c(=O)c3ccccc23)cc1	inconclusive: 31.6 µM [inhibitor, single point]	
Clc1ccccc1Nc1nc(-c2cccnc2)cs1	inconclusive: 35.5 µM [inhibitor, single point]	
N=c1c2c(-c3ccccc3)c(-c3ccccc3)n(Cc3ccco3)c2ncn1CCCN1CCOCC1	active: 7.08 µM	
Cc1cccc(NC(=O)CSc2nc3sc(C)cc3c(=O)n2C)c1	inconclusive: 22.4 µM [inhibitor, single point]	
CCN(Cc1ccccc1)Cc1c(O)ccc2c(=O)c(-c3ccccc3Cl)coc12		inactive: 5.55% [at 46.1 µM]
CCOc1cc(N2CCOCC2)c(OCC)cc1NC(=O)CCS(=O)(=O)c1ccc(Cl)cc1	inactive	
CCOC(=O)Cc1nnc(NC(=O)c2cccc(OCC)c2)s1		inactive: 3.08% [at 46.1 µM]
Cc1ccccc1N(C(=O)c1ccccn1)C(C(=O)NCc1ccccc1)c1ccncc1 (configuration not stated)		inactive: -1.22% [at 46.1 µM]
CCN(CC)CCOC(=O)C(Cc1ccco1)Cc1cccc2ccccc12 (configuration not stated)	inconclusive: 22.4 µM [inhibitor, single point]	
CCCOc1ccccc1C1CC(=O)NC2=C1C(=O)CCC2 (configuration not stated)	inconclusive: 7.94 µM [inhibitor, partial curve, poor fit]	
Cc1ccc2c(c1)C(c1ccccc1)N(C(=O)c1cccc([N+](=O)[O-])c1)CC(=O)N2 (configuration not stated)	inconclusive: 10 µM [inhibitor, partial curve, poor fit]	
Cc1ccc(-c2csc(NC(=O)C3=NN(c4ccccc4)C(=O)CC3)n2)cc1	inconclusive: 32.6 µM [inhibitor, single point]	
O=C(CSc1nc2ccccc2s1)N1c2ccccc2Sc2ccc(C(F)(F)F)cc21	inconclusive: 9.2 µM [inhibitor, partial curve]	
Cc1ccc(C(=O)c2ccc(C)cc2)cc1		inactive: -1.12% [at 46.1 µM]
CC1CCC(NC(=O)c2ccc(NS(=O)(=O)c3ccc4[nH]c(=O)[nH]c4c3)cc2)CC1 (configuration not stated)	inconclusive: 14.1 µM [activator, partial curve, poor fit]	
Cc1nc(SCC(=O)Nc2ccc(Cl)cc2C(F)(F)F)[nH]c(=O)c1Cc1ccccc1		inactive: 1.83% [at 46.1 µM]
COc1ccccc1CCNC(=O)C(=O)NCC1OCCCN1S(=O)(=O)c1cc(C)ccc1C (configuration not stated)	inconclusive: 1.12 µM [inhibitor, partial curve, poor fit]	
COc1ccc(CNC(=O)c2ccc3c(Cl)c4c(nc3c2)CCCC4)c(OC)c1		inactive: 8.32% [at 46.1 µM]
CCC(=O)Nc1ccc(OCc2nc3ccccc3s2)cc1	inconclusive: 12.6 µM [inhibitor, single point]	
CC1(C)N=C(c2ccccn2)C(C)(C)N1O	inconclusive: 2.06 µM [activator, partial curve, poor fit]	
CCC/C(=N/NC(=O)c1cccc(Cl)c1)c1ccccc1	inconclusive: 3.98 µM [inhibitor, full curve, poor fit]	
COc1ccc(S(=O)(=O)N(C)CC(=O)NCCC2=CCCCC2)cc1C	inconclusive: 29.1 µM [inhibitor, single point]	
Cc1ccn(CC(=O)N2CCCC(N3CCN(Cc4ccc5c(c4)OCO5)CC3)C2)n1 (configuration not stated)		inactive: 1.2%

Looked up above.
For Potency, CCN(CC)CCOC(=O)C(Cc1ccco1)Cc1cccc2ccccc12 (configuration not stated) is listed with inconclusive: 22.4 µM [inhibitor, single point]
For Potency, Cc1ccc(-c2csc(NC(=O)C3=NN(c4ccccc4)C(=O)CC3)n2)cc1 is listed with inconclusive: 32.6 µM [inhibitor, single point]
For Potency, CC1(C)N=C(c2ccccn2)C(C)(C)N1O is listed with inconclusive: 2.06 µM [activator, partial curve, poor fit]
